In patent US6630075B2, “Use of fluorinated ketones in fire extinguishing compositions” (3M Innovative Properties Company, priority 1999, dated 2003):
At least one structure is not confirmed: it was looked up by name or label, or the drawing left a doubt.

Test: manual suppression full-scale streaming test, UL Standard 711 pan fires
Details: heptane, 60 sec pre-burn, handheld extinguisher
Source text: These two examples were run to illustrate the fire performance of a fluorinated ketone of this invention, CF3CF2C(O)CF(CF3)2 (the fluorinated ketone as prepared in Example 1), using a manual suppression full-scale streaming test for a clean extinguishing agent.
For each example, a standard off-the-shelf Amerex 131b HALON™ 1211 handheld extinguisher was used to introduce the extinguishing composition to the fire. The extinguisher was equipped with a standard ½ in (1.3 cm) nominal diameter rubber hose with a clean extinguishing agent nozzle attached to the end. In each case, the composition was super-pressurized using dry nitrogen at 130-150 psi (900-1040 kPa).
Both fire extinguishing tests were run following essentially the same test procedures and conditions as outlined in UL Standard 711 for the 2B and 5B pan fire scenarios, as normally conducted for UL approval at Underwriters Laboratories, Inc., Northbrook, Ill. The only deviation from that test procedure was that the fire tests for these examples were conducted outside. The fire test pans for the respective fires were sized to be 2.5 times larger than the ultimate extinguisher rating. […] The discharge time for the extinguishing of the fire was recorded as was the amount of agent discharged.

In the case of O=C(C(F)(F)C(F)(F)F)C(F)(C(F)(F)F)C(F)(F)F [Example 1, 1,1,1,2,4,4,5,5,5-nonafluoro-2-trifluoromethyl-butan-3-one], the “Extinguished (Y/N)?” value (UL 2B pan) is reported as “Y” and the “Extinguished (Y/N)?” value (UL 5B pan) is reported as “Y”.
